# Results taken from the supplement of paper PMC8728848.
# The list shows a part of the results.
# How the values were obtained:
# Assay in all cases: glycan array binding signal (z-score within array); higher = stronger binding
# Details in all cases: glycan notation: IUPAC condensed, linker removed
# [1] = target: Fuc(a1-2)Gal(b1-4)[Fuc(a1-3)]GlcNAc(b1-2)Man(a1-3)[Fuc(a1-2)Gal(b1-4)[Fuc(a1-3)]GlcNAc(b1-2)Man(a1-6)]Man(b1-4)GlcNAc(b1-4)[Fuc(a1-6)]GlcNAc
# Procedure, shortened: (§1)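 Arrays were curated from the Consortium for Functional Glycomics database, 3228 in total, and kept only where the protein sequence was available. Binding is expressed as a within-array Z-score. This score was averaged across arrays of the same protein sequence at different concentrations or buffers and across linkers, and negative values can be read as non-binding.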
# [2] = target: Fuc(a1-2)Gal(b1-4)[Fuc(a1-3)]GlcNAc(b1-2)[Fuc(a1-2)Gal(b1-4)[Fuc(a1-3)]GlcNAc(b1-4)]Man(a1-3)[Fuc(a1-2)Gal(b1-4)[Fuc(a1-3)]GlcNAc(b1-2)Man(a1-6)]Man(b1-4)GlcNAc(b1-4)GlcNAc
# Procedure, shortened: as §1
# [3] = target: Fuc(a1-2)Gal(b1-4)[Fuc(a1-3)]GlcNAc(b1-3)Gal(b1-4)[Fuc(a1-3)]GlcNAc
# Procedure, shortened: as §1
# [4] = target: Fuc(a1-2)Gal(b1-4)[Fuc(a1-3)]GlcNAc(b1-3)Gal(b1-4)[Fuc(a1-3)]GlcNAc(b1-3)Gal(b1-4)[Fuc(a1-3)]GlcNAc
# Procedure, shortened: as §1
# [5] = target: Fuc(a1-2)Gal(b1-4)[Fuc(a1-3)]GlcNAc(b1-3)GalNAc
# Procedure, shortened: as §1
# [6] = target: Fuc(a1-2)Gal(b1-4)[Fuc(a1-3)]GlcNAc(b1-3)[Neu5Ac(a2-6)Gal(b1-4)GlcNAc(b1-6)]Gal(b1-4)Glc
# Procedure, shortened: as §1
# [7] = target: Fuc(a1-2)Gal3S(b1-4)GlcNAc
# Procedure, shortened: as §1
# [8] = target: Fuc(a1-2)Gal6S(b1-3)GlcNAc
# Procedure, shortened: as §1
# [9] = target: Fuc(a1-2)Gal6S(b1-3)GlcNAc6S
# Procedure, shortened: as §1
# Fuc(a1-2)Gal6S(b1-4)Glc = target: Fuc(a1-2)Gal6S(b1-4)Glc
# Procedure, shortened: as §1
# [10] = target: Fuc(a1-2)Gal6S(b1-4)Glc6S
# Procedure, shortened: as §1
# Fuc(a1-2)[Gal(a1-3)]Gal = target: Fuc(a1-2)[Gal(a1-3)]Gal
# Procedure, shortened: as §1
# [11] = target: Fuc(a1-2)[Gal(a1-3)]Gal(b1-3)GalNAc
# Procedure, shortened: as §1
# [12] = target: Fuc(a1-2)[Gal(a1-3)]Gal(b1-3)GalNAc(b1-3)Gal(a1-4)Gal(b1-4)Glc
# Procedure, shortened: as §1
# [13] = target: Fuc(a1-2)[Gal(a1-3)]Gal(b1-3)GlcNAc
# Procedure, shortened: as §1
# [14] = target: Fuc(a1-2)[Gal(a1-3)]Gal(b1-3)GlcNAc(b1-2)Man(a1-3)[Fuc(a1-2)[Gal(a1-3)]Gal(b1-3)GlcNAc(b1-2)Man(a1-6)]Man(b1-4)GlcNAc(b1-4)GlcNAc
# Procedure, shortened: as §1
# [15] = target: Fuc(a1-2)[Gal(a1-3)]Gal(b1-3)GlcNAc(b1-2)Man(a1-3)[Fuc(a1-2)[Gal(a1-3)]Gal(b1-3)GlcNAc(b1-2)Man(a1-6)]Man(b1-4)GlcNAc(b1-4)[Fuc(a1-6)]GlcNAc
# Procedure, shortened: as §1
# [16] = target: Fuc(a1-2)[Gal(a1-3)]Gal(b1-3)GlcNAc(b1-3)GalNAc
# Procedure, shortened: as §1
# [17] = target: Fuc(a1-2)[Gal(a1-3)]Gal(b1-3)GlcNAc(b1-6)GalNAc
# Procedure, shortened: as §1
# [18] = target: Fuc(a1-2)[Gal(a1-3)]Gal(b1-4)Glc
# Procedure, shortened: as §1
# [19] = target: Fuc(a1-2)[Gal(a1-3)]Gal(b1-4)GlcNAc
# Procedure, shortened: as §1
# [20] = target: Fuc(a1-2)[Gal(a1-3)]Gal(b1-4)GlcNAc(b1-2)Man
# Procedure, shortened: as §1
# [21] = target: Fuc(a1-2)[Gal(a1-3)]Gal(b1-4)GlcNAc(b1-2)Man(a1-3)[Fuc(a1-2)[Gal(a1-3)]Gal(b1-4)GlcNAc(b1-2)Man(a1-6)]Man(b1-4)GlcNAc(b1-4)GlcNAc
# Procedure, shortened: as §1
# [22] = target: Fuc(a1-2)[Gal(a1-3)]Gal(b1-4)GlcNAc(b1-2)Man(a1-3)[Fuc(a1-2)[Gal(a1-3)]Gal(b1-4)GlcNAc(b1-2)Man(a1-6)]Man(b1-4)GlcNAc(b1-4)[Fuc(a1-6)]GlcNAc
# Procedure, shortened: as §1
# [23] = target: Fuc(a1-2)[Gal(a1-3)]Gal(b1-4)GlcNAc(b1-3)GalNAc
# Procedure, shortened: as §1
# [24] = target: Fuc(a1-2)[Gal(a1-3)]Gal(b1-4)GlcNAc(b1-3)[Fuc(a1-2)[Gal(a1-3)]Gal(b1-4)GlcNAc(b1-6)]GalNAc
# Procedure, shortened: as §1
# [25] = target: Fuc(a1-2)[Gal(a1-3)]Gal(b1-4)GlcNAc(b1-6)GalNAc
# Procedure, shortened: as §1
# [26] = target: Fuc(a1-2)[Gal(a1-3)]Gal(b1-4)[Fuc(a1-3)]Glc
# Procedure, shortened: as §1
# [27] = target: Fuc(a1-2)[Gal(a1-3)]Gal(b1-4)[Fuc(a1-3)]GlcNAc
# Procedure, shortened: as §1
# [28] = target: Fuc(a1-2)[Gal(a1-3)]Gal(b1-4)[Fuc(a1-3)]GlcNAc(b1-3)GalNAc
# Procedure, shortened: as §1
# [29] = target: Fuc(a1-2)[Gal(a1-4)]Gal(b1-4)GlcNAc
# Procedure, shortened: as §1
# [30] = target: Fuc(a1-2)[GalNAc(a1-3)]Gal
# Procedure, shortened: as §1
# [31] = target: Fuc(a1-2)[GalNAc(a1-3)]Gal(b1-3)GalNAc(a1-3)[Fuc(a1-2)]Gal(b1-4)GlcNAc
# Procedure, shortened: as §1
# [32] = target: Fuc(a1-2)[GalNAc(a1-3)]Gal(b1-3)GalNAc(b1-3)Gal(a1-4)Gal(b1-4)Glc
# Procedure, shortened: as §1
# [33] = target: Fuc(a1-2)[GalNAc(a1-3)]Gal(b1-3)GlcNAc
# Procedure, shortened: as §1
# [34] = target: Fuc(a1-2)[GalNAc(a1-3)]Gal(b1-3)GlcNAc(b1-2)Man(a1-3)[Fuc(a1-2)[GalNAc(a1-3)]Gal(b1-3)GlcNAc(b1-2)Man(a1-6)]Man(b1-4)GlcNAc(b1-4)GlcNAc
# Procedure, shortened: as §1
# [35] = target: Fuc(a1-2)[GalNAc(a1-3)]Gal(b1-3)GlcNAc(b1-2)Man(a1-3)[Fuc(a1-2)[GalNAc(a1-3)]Gal(b1-3)GlcNAc(b1-2)Man(a1-6)]Man(b1-4)GlcNAc(b1-4)[Fuc(a1-6)]GlcNAc
# Procedure, shortened: as §1
# [36] = target: Fuc(a1-2)[GalNAc(a1-3)]Gal(b1-3)GlcNAc(b1-3)GalNAc
# Procedure, shortened: as §1
binder,measurement,setting,value
FimA-N2 (Actinomyces oris) (protein) MHHHHHHSSGVDLGTENLYFQSNAWIYDVNVYPKNEAIDVDKTIQAQKLNGYGVGSLIKFPVESTAPTLDAKSFYKYFQLKDTLDERLSEVTATDVSLEGTPLQPTDYKVETKQQTVTVTFTAEGLKKIKAAPGKKVSAVFQGKVTKAGNGAITNRAQVISDTLYAEQPPTPETPPTDPENPPTSDEVISRWGDLSIKKVDTHQQGQTKA,glycan array binding signal (z-score),[1],-1.43
same,glycan array binding signal (z-score),[2],-0.365
same,glycan array binding signal (z-score),[3],-1.32
same,glycan array binding signal (z-score),[4],-0.065
same,glycan array binding signal (z-score),[5],0.987
same,glycan array binding signal (z-score),[6],-0.348
same,glycan array binding signal (z-score),[7],-0.817
same,glycan array binding signal (z-score),[8],1.35
same,glycan array binding signal (z-score),[9],3.98
same,glycan array binding signal (z-score),Fuc(a1-2)Gal6S(b1-4)Glc,-0.601
same,glycan array binding signal (z-score),[10],1.12
same,glycan array binding signal (z-score),Fuc(a1-2)[Gal(a1-3)]Gal,1.78
same,glycan array binding signal (z-score),[11],-0.738
same,glycan array binding signal (z-score),[12],-0.132
same,glycan array binding signal (z-score),[13],-0.75
same,glycan array binding signal (z-score),[14],-0.1
same,glycan array binding signal (z-score),[15],-0.838
same,glycan array binding signal (z-score),[16],0.316
same,glycan array binding signal (z-score),[17],-1.22
same,glycan array binding signal (z-score),[18],-1.44
same,glycan array binding signal (z-score),[19],-0.176
same,glycan array binding signal (z-score),[20],-1.29
same,glycan array binding signal (z-score),[21],0.761
same,glycan array binding signal (z-score),[22],1.74
same,glycan array binding signal (z-score),[23],0.196
same,glycan array binding signal (z-score),[24],-1.01
same,glycan array binding signal (z-score),[25],2.61
same,glycan array binding signal (z-score),[26],-0.509
same,glycan array binding signal (z-score),[27],0.729
same,glycan array binding signal (z-score),[28],-1.56
same,glycan array binding signal (z-score),[29],-0.605
same,glycan array binding signal (z-score),[30],-0.569
same,glycan array binding signal (z-score),[31],0.055
same,glycan array binding signal (z-score),[32],-1.11
same,glycan array binding signal (z-score),[33],0.353
same,glycan array binding signal (z-score),[34],-0.122
same,glycan array binding signal (z-score),[35],-0.909
same,glycan array binding signal (z-score),[36],-1.13

# Part of the list above, tab-delimited:
binder	measurement	setting	value
FimA-N2 (Actinomyces oris) (protein) MHHHHHHSSGVDLGTENLYFQSNAWIYDVNVYPKNEAIDVDKTIQAQKLNGYGVGSLIKFPVESTAPTLDAKSFYKYFQLKDTLDERLSEVTATDVSLEGTPLQPTDYKVETKQQTVTVTFTAEGLKKIKAAPGKKVSAVFQGKVTKAGNGAITNRAQVISDTLYAEQPPTPETPPTDPENPPTSDEVISRWGDLSIKKVDTHQQGQTKA	glycan array binding signal (z-score)	[16]	0.316
same	glycan array binding signal (z-score)	[17]	-1.22
same	glycan array binding signal (z-score)	[18]	-1.44
same	glycan array binding signal (z-score)	[19]	-0.176
same	glycan array binding signal (z-score)	[20]	-1.29
same	glycan array binding signal (z-score)	[21]	0.761
same	glycan array binding signal (z-score)	[22]	1.74
same	glycan array binding signal (z-score)	[23]	0.196
same	glycan array binding signal (z-score)	[24]	-1.01
same	glycan array binding signal (z-score)	[25]	2.61
